From publication PMC10877727
For at least one entry, the source does not settle the construct or the ends of the probe. The comparison behind a weaker result is the experiment's own reference, which may not be listed here. At least one verdict rests on a figure or table, not on a statement of the authors.

Target: TraN (Enterococcus faecalis plasmid pIP501) (UniProt Q7BVV5)
Assay: MST
Settings: Kd in low micromolar range, value only in Figure 4B; MST in PBS-T (pH and temperature not stated); 50 nM RED-tris-NTA labelled His-protein, dsDNA 0.781 nM to 12.8 uM; Monolith NT.115, 60% LED and MST power; recombinant protein; residues 1-122; protein details: N-terminal 7xHis (pQTEV)

Sequence: AGGGCGCACTTATACGCAGTAACTTCGTTACTTC (double strand) [random DNA 34-mer]
- binding result: binds more weakly
